Results deposited as PubChem BioAssay AID1259308 (NCATS, 2017).

- Test: 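Knock-downs that increase output of a recombinant reporter protein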 (primary screen)
- System: human HEK293 embryonic kidney cells stably expressing firefly luciferase (HEK-CMV-Luc2-Hygro)
- Knock-down reagent: single siRNA against human genes, 0.8 pmol siRNA per well
- Duration: 72 h
- Measurement: 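Luciferase light (ONE-Glo) measured on one replicate plate set and viability (CellTiter-Glo) on the other, scaled to a negative control siRNA, with robust z-scores and luciferase per cell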
- Scale: total luciferase, z-score and total luciferase, % of control: higher = more reporter protein produced
- Call rule: 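Active when the median/MAD z-score for overall luciferase is greater than 3; a gene was taken forward for validation with new siRNAs if at least two of its three siRNAs passed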
- Meaning of the calls: active = raised luciferase; inactive = no rise
Here is a random part of about 59,000 reagents tested. Of all reagents, about 1,510 (2.6%) are marked active. 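Calls use total luciferase alone and ignore viability, so some active siRNAs may act by altering cell number.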 The numbers tell different reagents against one gene apart. Not all columns of the deposit are shown.

What did the screen give for WFIKKN2 #1?
total luciferase, z-score: -2.6; total luciferase, % of control: 30.2; Call: inactive

What did the screen give for WFIKKN2 #2?
total luciferase, z-score: 0.707; total luciferase, % of control: 96; Call: inactive

How did the screen score WFIKKN2 #3?
total luciferase, z-score: -0.835; total luciferase, % of control: 65.3; Call: inactive

What is on record for VCF2 #1?
total luciferase, z-score: -0.583; total luciferase, % of control: 70.3; Call: inactive

How did the screen score VCF2 #2?
total luciferase, z-score: -0.3; total luciferase, % of control: 75.9; Call: inactive

How did the screen score VCF2 #3?
total luciferase, z-score: 0.0447; total luciferase, % of control: 82.8; Call: inactive

How did the screen score TLR9 #1?
total luciferase, z-score: -0.119; total luciferase, % of control: 79.5; Call: inactive

Which result is listed for TLR9 #2?
total luciferase, z-score: 0.349; total luciferase, % of control: 88.8; Call: inactive

For TLR9 #3, what was measured?
total luciferase, z-score: 0.964; total luciferase, % of control: 101; Call: inactive

With AKAP7 #1, what was measured?
total luciferase, z-score: 0.85; total luciferase, % of control: 98.8; Call: inactive

With AKAP7 #2, how do the results read?
total luciferase, z-score: 0.491; total luciferase, % of control: 91.6; Call: inactive

With AKAP7 #3, what was measured?
total luciferase, z-score: -0.28; total luciferase, % of control: 76.3; Call: inactive

For EIF4E3 #1, how do the results read?
total luciferase, z-score: 1.69; total luciferase, % of control: 116; Call: inactive

For EIF4E3 #2, what does the deposit list?
total luciferase, z-score: 1.26; total luciferase, % of control: 107; Call: inactive

How did the screen score EIF4E3 #3?
total luciferase, z-score: -0.863; total luciferase, % of control: 64.7; Call: inactive

How did the screen score TEX38 #1?
total luciferase, z-score: -1.14; total luciferase, % of control: 59.2; Call: inactive

With TEX38 #2, what was measured?
total luciferase, z-score: -1.46; total luciferase, % of control: 52.8; Call: inactive

For TEX38 #3, what was measured?
total luciferase, z-score: 3.7; total luciferase, % of control: 155; Call: active

What is on record for EIF4E2 #1?
total luciferase, z-score: -0.105; total luciferase, % of control: 79.8; Call: inactive

With EIF4E2 #2, what does the deposit list?
total luciferase, z-score: -0.00602; total luciferase, % of control: 81.8; Call: inactive

With EIF4E2 #3, what does the deposit list?
total luciferase, z-score: -1.35; total luciferase, % of control: 55.1; Call: inactive

With TSC22D2 #1, how do the results read?
total luciferase, z-score: -1.1; total luciferase, % of control: 60.1; Call: inactive

Which result is listed for TSC22D2 #2?
total luciferase, z-score: 0.307; total luciferase, % of control: 88; Call: inactive

What did the screen give for TSC22D2 #3?
total luciferase, z-score: -2.03; total luciferase, % of control: 41.5; Call: inactive

With MBNL1 #1, what was measured?
total luciferase, z-score: -0.528; total luciferase, % of control: 71.4; Call: inactive

What is on record for MBNL1 #2?
total luciferase, z-score: -0.311; total luciferase, % of control: 75.7; Call: inactive

With MBNL1 #3, what was measured?
total luciferase, z-score: 0.704; total luciferase, % of control: 95.9; Call: inactive

What is on record for TIMM17A #1?
total luciferase, z-score: -0.311; total luciferase, % of control: 75.7; Call: inactive

What is on record for TIMM17A #2?
total luciferase, z-score: -1.25; total luciferase, % of control: 57.1; Call: inactive

What is on record for TIMM17A #3?
total luciferase, z-score: 0.181; total luciferase, % of control: 85.5; Call: inactive

Which result is listed for OSGIN1 #1?
total luciferase, z-score: 0.108; total luciferase, % of control: 84; Call: inactive

Which result is listed for OSGIN1 #2?
total luciferase, z-score: -0.235; total luciferase, % of control: 77.2; Call: inactive

With OSGIN1 #3, what does the deposit list?
total luciferase, z-score: -0.155; total luciferase, % of control: 78.8; Call: inactive

Which result is listed for LMTK3 #1?
total luciferase, z-score: 1.93; total luciferase, % of control: 120; Call: inactive

For LMTK3 #2, what was measured?
total luciferase, z-score: -0.315; total luciferase, % of control: 75.6; Call: inactive

With LMTK3 #3, what was measured?
total luciferase, z-score: -0.739; total luciferase, % of control: 67.2; Call: inactive

What is on record for KRIT1 #1?
total luciferase, z-score: 1.2; total luciferase, % of control: 106; Call: inactive

With KRIT1 #2, what was measured?
total luciferase, z-score: 0.677; total luciferase, % of control: 95.4; Call: inactive

Which result is listed for KRIT1 #3?
total luciferase, z-score: -0.323; total luciferase, % of control: 75.5; Call: inactive

How did the screen score SASH1 #1?
total luciferase, z-score: -0.0481; total luciferase, % of control: 80.9; Call: inactive

Which result is listed for SASH1 #2?
total luciferase, z-score: 1.34; total luciferase, % of control: 109; Call: inactive

With SASH1 #3, what does the deposit list?
total luciferase, z-score: 1.24; total luciferase, % of control: 106; Call: inactive

Hits (from the list above):
TEX38 #3 — total luciferase, z-score = 3.7; total luciferase, % of control = 155; Call = active
